Experimental data reported in PubChem BioAssay AID248 (DTP/NCI, 2004).
The list shows only some results of the screen, not a fair sample: it gathers tests that were run many times, whatever their T/C, doses with no T/C, and many T/C values between a quarter and a half above the control. Other doses and runs of a compound stand elsewhere. T/C gives the treated animals as a percentage of the vehicle group. Some entries give survivors of the animals treated and no T/C: the source files T/C as zero there, which appears to mark a toxic dose or a test without result, not a measured value. Some doses without a T/C left all or most animals alive at the check, yet need not have been tolerated: survival well below the control is almost never listed, so the zero probably covers shortened survival too. Counts of survivors are from the toxicity check (mostly the fifth day) where no day follows; animals may have died later. Schedules are NCI's codes, read here as Q, the interval in days (D) or hours (H), X, the number of doses. Some schedules carry Z or #; the key to these is not given. Some molecules as drawn cover several salts, stereoisomers or complexes of the source; a dose is that of the sample tested. Where survival is the endpoint, this PubChem deposit counts one and a half times the control or more as active, and values a quarter to a half above the control carry no call in these data; other NCI protocols may use other cut-offs. Some T/C values carry the count of animals alive at the toxicity check (mostly the fifth day); where none is given, no animal had died by that day. Some doses were run more than once; the results are listed from low to high.

System: L1210 leukemia ip in BDF1 mice, survival T/C
Experiment: NCI In Vivo Anticancer Drug Screen. Data for tumor model L1210 Leukemia (intraperitoneal) in B6D2F1 (BDF1) mice
Conditions: T/C endpoint: mean survival time, higher T/C = longer survival
[1] = dose: 12.5 mg/kg/injection, schedule: Q04DX003 (ip), vehicle: Klucel (hydroxypropylcellulose) (HPC)
[2] = dose: 25.0 mg/kg/injection, schedule: Q04DX003 (ip), vehicle: Klucel (hydroxypropylcellulose) (HPC)
[3] = dose: 50.0 mg/kg/injection, schedule: Q04DX003 (ip), vehicle: Klucel (hydroxypropylcellulose) (HPC)
[4] = dose: 100.0 mg/kg/injection, schedule: Q04DX003 (ip), vehicle: Klucel (hydroxypropylcellulose) (HPC)
[5] = dose: 200.0 mg/kg/injection, schedule: Q04DX003 (ip), vehicle: Klucel (hydroxypropylcellulose) (HPC)
[6] = dose: 400.0 mg/kg/injection, schedule: Q04DX003 (ip), vehicle: Klucel (hydroxypropylcellulose) (HPC)
[7] = dose: 400.0 mg/kg/injection, schedule: Q01DX001 (ip), vehicle: saline
[8] = dose: 100.0 mg/kg/injection, schedule: Q01DX001 (ip), vehicle: saline
[9] = dose: 400.0 mg/kg/injection, schedule: Q01DX009 (ip), vehicle: saline with Tween-80
[10] = dose: 200.0 mg/kg/injection, schedule: Q04DX003 (ip), vehicle: saline with Tween-80
[11] = dose: 400.0 mg/kg/injection, schedule: Q04DX003 (ip), vehicle: saline with Tween-80

## NC(N)=NCCCNCCCN=C(N)N
dose: 280.0 mg/kg/injection, schedule: Q01DX Z (oral), vehicle: saline
  survivor count: 3 of 6
dose: 560.0 mg/kg/injection, schedule: Q01DX Z (oral), vehicle: saline
  survivor count: 1 of 6

## CC1CN(Cl)C(=O)N(Cl)C1=O (stereo unspecified)
dose: 5.0 mg/kg/injection, schedule: Q01DX001 (ip), vehicle: saline
  survivor count: 1 of 6
dose: 80.0 mg/kg/injection, schedule: Q01DX001 (ip), vehicle: saline
  survivor count: 3 of 6

## FC1(F)SC2C3CC(C4CCC=C43)C2C1(F)F (stereo unspecified)
dose: 3.13 mg/kg/injection, schedule: Q01DX009 (ip), vehicle: Klucel (hydroxypropylcellulose) (HPC)
  survivor count: 1 of 6
dose: 6.25 mg/kg/injection, schedule: Q04DX003 (ip), vehicle: Klucel (hydroxypropylcellulose) (HPC)
  survivor count: 0 of 6
[1]
  survivor count: 0 of 6
[2]
  survivor count: 0 of 6
[3]
  survivor count: 0 of 6
[4]
  survivor count: 0 of 6
[5]
  survivor count: 0 of 6
[6]
  survivor count: 0 of 6

## CSc1ncnc2c1cnn2C1OC(CCC#N)C(O)C1O (stereo unspecified)
[7]
  survivor count: 2 of 6

## Cc1ccc(S(=O)(=O)OCC2OC(C)(C)OC3C(COS(=O)(=O)c4ccc(C)cc4)OC(C)(C)OC23)cc1 (stereo unspecified)
dose: 50.0 mg/kg/injection, schedule: Q01DX001 (ip), vehicle: saline
  survivor count: 4 of 4
[8]
  survivor count: 4 of 4
dose: 200.0 mg/kg/injection, schedule: Q01DX001 (ip), vehicle: saline
  survivor count: 4 of 4
[7]
  survivor count: 4 of 4

## CC(C)(C)c1ccc(SC(=O)Nc2cc([N+](=O)[O-])ccc2Cl)cc1
dose: 200.0 mg/kg/injection, schedule: Q01DX009 (ip), vehicle: saline with Tween-80
  survivor count: 6 of 6
[9]
  survivor count: 2 of 6

## Clc1ccc(N2CCN(CCCN3CCN(c4cccc(Cl)c4)CC3)CC2)cc1
[6]
  survivor count: 2 of 6

## COCCCN=C(N)c1ccc(NC(=O)c2ccc(C(=O)Nc3ccc(C(N)=NCCCOC)cc3)cc2)cc1
dose: 1.5 mg/kg/injection, schedule: Q01DX Z (ip), vehicle: saline
  T/C: 134 % of control
dose: 2.0 mg/kg/injection, schedule: Q01DX Z (ip), vehicle: saline
  T/C: 147 % of control
dose: 8.0 mg/kg/injection, schedule: Q01DX Z (ip), vehicle: saline
  T/C: 141 % of control
dose: 8.0 mg/kg/injection, schedule: Q02DX004 (im), vehicle: saline
  T/C: 130 % of control
dose: 12.0 mg/kg/injection, schedule: Q01DX Z (ip), vehicle: saline
  T/C: 136 % of control
dose: 16.0 mg/kg/injection, schedule: Q01DX006 (iv), vehicle: saline
  T/C: 129 and 133 % of control [5 of 6 alive]
dose: 16.0 mg/kg/injection, schedule: Q02DX004 (im), vehicle: saline
  T/C: 138 % of control
dose: 24.0 mg/kg/injection, schedule: Q01DX Z (ip), vehicle: saline
  survivor count: 6 of 6
dose: 30.0 mg/kg/injection, schedule: Q01DX Z (ip), vehicle: saline
  survivor count: 6 of 6
dose: 32.0 mg/kg/injection, schedule: Q01DX006 (iv), vehicle: saline
  survivor count: 0 of 6
dose: 60.0 mg/kg/injection, schedule: Q01DX Z (ip), vehicle: saline
  survivor count: 1 of 6
dose: 64.0 mg/kg/injection, schedule: Q01DX006 (iv), vehicle: saline
  survivor count: 0 of 6
dose: 64.0 mg/kg/injection, schedule: Q02DX004 (im), vehicle: saline
  survivor count: 5 of 6
dose: 120.0 mg/kg/injection, schedule: Q01DX Z (ip), vehicle: saline
  survivor count: 0 of 6
dose: 128.0 mg/kg/injection, schedule: Q01DX006 (iv), vehicle: saline
  survivor count: 0 of 6
dose: 128.0 mg/kg/injection, schedule: Q02DX004 (im), vehicle: saline
  survivor count: 3 of 6
dose: 500.0 mg/kg/injection, schedule: Q## X010 (oral), vehicle: saline
  T/C: 143 % of control

## CCCC/C=C/C#N
dose: 300.0 mg/kg/injection, schedule: Q01DX009 (ip), vehicle: saline
  survivor count: 0 of 6

## CCOC(=O)CNC(=O)NCc1ccc2c(c1)OCO2
[9]
  survivor count: 3 of 6

## CCCCCCCC(=O)NOS(=O)(=O)O
[8]
  survivor count: 1 of 6
dose: 100.0 mg/kg/injection, schedule: Q01DX009 (ip), vehicle: saline
  survivor count: 0 of 6

## C[C@@H]1CN1C1=CC(=O)C(N2C[C@H]2C)=CC1=O
dose: 25.0 mg/kg/injection, schedule: Q04DX003 (ip), vehicle: saline with Tween-80
  survivor count: 6 of 6
dose: 100.0 mg/kg/injection, schedule: Q04DX003 (ip), vehicle: saline with Tween-80
  survivor count: 0 of 6
[10]
  survivor count: 0 of 6
[11]
  survivor count: 0 of 6

## Cc1nc(-c2ccccc2)c(-c2ccccc2)[nH]1
dose: 100.0 mg/kg/injection, schedule: Q01DX009 (ip), vehicle: Klucel (hydroxypropylcellulose) (HPC)
  T/C: 130 % of control [5 of 6 alive]
dose: 200.0 mg/kg/injection, schedule: Q01DX009 (ip), vehicle: Klucel (hydroxypropylcellulose) (HPC)
  survivor count: 0 of 6
[6]
  survivor count: 2 of 6

## C[n+]1ccc(/C=C/c2c(Cl)cccc2Cl)c2ccccc21
[1]
  survivor count: 3 of 6
[2]
  survivor count: 1 of 6
[3]
  survivor count: 0 of 6
[4]
  survivor count: 0 of 6
[5]
  survivor count: 0 of 6
[6]
  survivor count: 0 of 6

## COc1ccc(C(=O)CBr)c(OC)c1
dose: 50.0 mg/kg/injection, schedule: Q01DX009 (ip), vehicle: saline with Tween-80
  survivor count: 2 of 6
dose: 100.0 mg/kg/injection, schedule: Q01DX009 (ip), vehicle: saline with Tween-80
  survivor count: 0 of 6
[10]
  survivor count: 1 of 6
[11]
  survivor count: 0 of 6

## Nc1ccc(O)cc1
dose: 50.0 mg/kg/injection, schedule: Q04DX003 (ip), vehicle: saline
  survivor count: 1 of 3
dose: 80.0 mg/kg/injection, schedule: Q01DX Z (ip), vehicle: methylcellulose (MC)
  T/C: 137 % of control
dose: 100.0 mg/kg/injection, schedule: Q04DX003 (ip), vehicle: saline
  survivor count: 0 of 3
dose: 160.0 mg/kg/injection, schedule: Q01DX Z (ip), vehicle: methylcellulose (MC)
  T/C: 130 % of control
dose: 200.0 mg/kg/injection, schedule: Q04DX003 (ip), vehicle: saline
  survivor count: 0 of 3
dose: 400.0 mg/kg/injection, schedule: Q04DX003 (ip), vehicle: saline
  survivor count: 0 of 3
dose: 405.0 mg/kg/injection, schedule: Q01DX Z (ip), vehicle: saline
  survivor count: 3 of 6
dose: 480.0 mg/kg/injection, schedule: Q01DX013 (oral), vehicle: saline
  T/C: 136 % of control
dose: 610.0 mg/kg/injection, schedule: Q01DX Z (ip), vehicle: saline
  survivor count: 0 of 6
dose: 640.0 mg/kg/injection, schedule: Q01DX Z (oral), vehicle: methylcellulose (MC)
  survivor count: 1 of 6
dose: 720.0 mg/kg/injection, schedule: Q01DX016 (oral), vehicle: saline
  T/C: 132 % of control [5 of 6 alive]
dose: 1080.0 mg/kg/injection, schedule: Q01DX016 (oral), vehicle: saline
  T/C: 139 % of control [4 of 6 alive]
dose: 1280.0 mg/kg/injection, schedule: Q01DX Z (oral), vehicle: methylcellulose (MC)
  survivor count: 0 of 6
